Measurements as given in PMC9747586.
These are yes or no findings as the source states them, for the method shown. Binding seen in cells or lysates may run through a third protein. Some entries that bind do so weakly or less than the wild type. Tags and fused reporters may be left off the sequences shown.

Target: T1, V5-tagged IFNLR1-WT (UniProt Q8IU57)
T1 sequence: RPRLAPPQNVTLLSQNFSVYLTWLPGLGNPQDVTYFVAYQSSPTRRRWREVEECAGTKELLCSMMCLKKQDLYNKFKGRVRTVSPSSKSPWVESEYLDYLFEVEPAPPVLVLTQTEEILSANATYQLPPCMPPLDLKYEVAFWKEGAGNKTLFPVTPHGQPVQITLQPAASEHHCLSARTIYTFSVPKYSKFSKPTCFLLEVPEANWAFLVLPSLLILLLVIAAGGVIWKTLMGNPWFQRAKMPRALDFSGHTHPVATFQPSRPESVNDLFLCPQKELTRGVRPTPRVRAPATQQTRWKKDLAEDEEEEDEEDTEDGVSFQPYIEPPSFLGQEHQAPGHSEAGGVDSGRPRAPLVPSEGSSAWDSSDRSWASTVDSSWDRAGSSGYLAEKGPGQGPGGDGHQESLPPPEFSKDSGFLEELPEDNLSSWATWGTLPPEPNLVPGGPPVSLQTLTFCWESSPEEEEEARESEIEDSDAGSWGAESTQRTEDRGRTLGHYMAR
Experiment: co-IP; HEK-293T cotransfected 48 h, MG-132 (20 uM) and leupeptin (100 uM) 2 h, lysate precipitated with V5 antibody and protein A/G magnetic beads, FLAG immunoblot

- binding: binds
B1: FLAG-tagged FBXO45 (protein, UniProt P0C2W1 1-286)
chain: MAAPAPGAGAASGGAGCSGGGAGAGAGSGSGAAGAGGRLPSRVLELVFSYLELSELRSCALVCKHWYRCLHGDENSEVWRSLCARSLAEEALRTDILCNLPSYKAKIRAFQHAFSTNDCSRNVYIKKNGFTLHRNPIAQSTDGARTKIGFSEGRHAWEVWWEGPLGTVAVIGIATKRAPMQCQGYVALLGSDDQSWGWNLVDNNLLHNGEVNGSFPQCNNAPKYQIGERIRVILDMEDKTLAFERGYEFLGVAFRGLPKVCLYPAVSAVYGNTEVTLVYLGKPLDG
